## Results of single-concentration screens

Sequences of proteins named here, by UniProt entry; tags and fusion partners are left off. Residues count along the entry.
UniProt Q8IDJ8, 1-583: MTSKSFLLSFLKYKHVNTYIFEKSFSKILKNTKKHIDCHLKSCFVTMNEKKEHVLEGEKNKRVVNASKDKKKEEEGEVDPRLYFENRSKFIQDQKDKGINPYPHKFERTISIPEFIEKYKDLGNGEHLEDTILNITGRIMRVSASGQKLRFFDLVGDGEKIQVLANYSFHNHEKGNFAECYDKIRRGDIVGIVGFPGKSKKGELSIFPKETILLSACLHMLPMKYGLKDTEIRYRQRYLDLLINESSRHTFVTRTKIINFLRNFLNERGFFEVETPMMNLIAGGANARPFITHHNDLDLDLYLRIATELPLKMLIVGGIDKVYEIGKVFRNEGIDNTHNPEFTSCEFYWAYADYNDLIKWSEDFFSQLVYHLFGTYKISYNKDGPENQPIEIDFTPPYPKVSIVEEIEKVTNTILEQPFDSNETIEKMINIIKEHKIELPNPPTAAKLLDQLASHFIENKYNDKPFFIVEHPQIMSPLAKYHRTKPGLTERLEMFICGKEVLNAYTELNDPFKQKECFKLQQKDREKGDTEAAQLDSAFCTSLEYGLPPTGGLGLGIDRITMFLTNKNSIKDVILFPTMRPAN
UniProt A4I591, 1-473: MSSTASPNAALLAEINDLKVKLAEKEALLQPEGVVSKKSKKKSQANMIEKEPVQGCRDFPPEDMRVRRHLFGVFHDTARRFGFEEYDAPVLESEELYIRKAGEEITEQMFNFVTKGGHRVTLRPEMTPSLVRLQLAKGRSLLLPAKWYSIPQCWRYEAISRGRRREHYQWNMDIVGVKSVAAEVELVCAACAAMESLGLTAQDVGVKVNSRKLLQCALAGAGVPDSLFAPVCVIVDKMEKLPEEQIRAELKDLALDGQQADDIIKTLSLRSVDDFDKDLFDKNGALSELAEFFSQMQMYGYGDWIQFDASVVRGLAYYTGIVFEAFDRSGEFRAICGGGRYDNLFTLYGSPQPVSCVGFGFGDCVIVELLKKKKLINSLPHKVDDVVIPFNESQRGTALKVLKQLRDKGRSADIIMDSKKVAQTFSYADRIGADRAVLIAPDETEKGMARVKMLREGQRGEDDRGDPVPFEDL

Leishmania in macrophages: 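Cell assay of Leishmania donovani living inside macrophages; the read-out is not stated. Concentration: 30 µM. Direction is inferred from retests: higher values go with stronger inhibition. Of about 69,000 compounds tested this way, about 1,000 (1.5%) reached 50% or more in at least one test.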
PfKRS1: 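Enzyme assay of the cytosolic lysyl-tRNA synthetase in 384-well plates, read by luminescence. Target: Lysine-tRNA ligase, Plasmodium falciparum 3D7 (UniProt Q8IDJ8). Concentration: 30 µM. Direction is inferred from only a few compounds that gave an IC50; most scored high, so higher reads as stronger inhibition. Of about 69,000 compounds tested this way, about 49 (0.071%) reached 50% or more in at least one test.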
LiHisRS: 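Enzyme assay of histidyl-tRNA synthetase; the read-out is not stated. Target: Histidine-tRNA ligase, Leishmania infantum (UniProt A4I591). Tested at 30 µM. Direction is inferred from retests: higher values go with stronger inhibition. The assay is labelled LdHisRS but filed under L. infantum. About 69,000 compounds were tested under these conditions; 0.6% (about 410) showed 50% or more at least once.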

Values are the deposited “Percent Effect”, in %. The record does not define 0% and 100%; most values in the screen are far below 50% and negative numbers occur (in some assays of this library far below -100). This is an unselected part of the compounds tested. A dash means the value is not listed here; it may have been measured.

| # | Compound | Leishmania in macrophages | PfKRS1 | LiHisRS |
|---|---|---|---|---|
| 1 | `Cn1c(CCN2CCN(c3ccc(O)cc3)CC2)nc2ccccc21` | 24.76 | 0.6304 | 26.32 |
| 2 | `COc1cc(C)ccc1OCc1nc(C(=O)N2CCCO2)co1` | -14.39 | -4.814 | 20.51 |
| 3 | `O=c1n(CCNCc2ccc(-c3ccccc3)cc2)nc2ccccn12` | 22.65 | -0.9621 | 22.34 |
| 4 | `O=C(O)C(F)(F)F.[H][C@@]12COC[C@]1(COC)CN(Cc1ccc3c(c1)OCO3)C2` | 32.65 | - | - |
| 5 | `CC1CCCN1Cc1ccccc1-c1nc(C(C)(C)C)cc(=O)[nH]1` (configuration not stated) | 16.61 | -4.096 | -6.452 |
| 6 | `CN(C)CCN1CCCC12CCN(C(=O)c1cccn1C)CC2` | - | -1.282 | 5.882 |
| 7 | `Cc1cccc(-n2nc(CC(C)C)nc2CCC(=O)N(C)C)c1` | 13.59 | 4.686 | 19.35 |
| 8 | `O=C(c1ccc2c(c1)OCO2)N1CCCC(n2ccnc2)C1` (configuration not stated) | 7.939 | 1.837 | -0.8696 |
| 9 | `CN1C(=O)CC(c2ccccc2)C12CCN(CCO)CC2.O=C(O)C(F)(F)F` (configuration not stated) | 19.8 | - | - |
| 10 | `[H][C@@]12CCCO[C@]1([H])[C@H](NC(=O)C1CC1)CN2Cc1ccsc1` | 34.16 | - | - |
| 11 | `O=C(CNc1ccccc1Cl)Nc1cc(-n2cnnn2)ccc1F` | 28.4 | 3.16 | 12.35 |
| 12 | `CCCC(C)CN1CCC(n2cc(CCCO)nn2)CC1` (configuration not stated) | 9.575 | 1.208 | 20.19 |
| 13 | `NC(=O)N1CCCC(C(=O)NCCOc2ccc(F)c(F)c2)C1` (configuration not stated) | 14.7 | 1.049 | 10 |
| 14 | `CCS(=O)(=O)N1CCc2c(CN3CCOCC3)cncc2C1` | - | 2.138 | 9.434 |
| 15 | `CCCC1CCCN(C(=O)Nc2cccnc2OC)CC1` (configuration not stated) | 8.688 | 5.059 | 8.264 |
| 16 | `COCC1c2c(cnn2C)CCN1C(=O)c1cc(C)on1` (configuration not stated) | - | 4.874 | 9.91 |
| 17 | `CN(C)CC1CN(C(=O)NCc2ccccc2)Cc2nccn2C1.O=C(O)C(F)(F)F` (configuration not stated) | 18.68 | - | - |
| 18 | `OC(COCc1cccs1)CN1CCc2c(ncn2C2CC2)C1` (configuration not stated) | 40.93 | 2.086 | 17.24 |
| 19 | `CCC(C(=O)NC1(C(N)=O)CCCC1)n1cccn1` (configuration not stated) | 14.95 | 5.499 | 6.667 |
| 20 | `CCc1ncc2c(n1)CN(c1nnc(C)c(C)c1C#N)CC2` | 29.82 | 4.114 | 12 |
| 21 | `CC(C)(C)c1cn2nc(N3CCCC3Cn3cncn3)sc2n1` (configuration not stated) | 28.58 | 1.032 | -17.02 |
| 22 | `Cc1c(F)cccc1CN1CCn2nc(CNC(=O)N(C)C)cc2C1` | 1.178 | 0.3603 | 15.24 |
| 23 | `O=C1NCC2(CCCN(Cc3ccncc3)C2)Oc2ccccc21` (configuration not stated) | -9.659 | 3.552 | 13.54 |
| 24 | `Cc1ccc(NC(=O)N2CCC(NC(=O)c3ccc(C)o3)CC2)cc1` | 28.2 | -0.8747 | 10.67 |
| 25 | `CCC(C)(NCC(=O)Nc1ccccc1)c1nc(C)cs1` (configuration not stated) | 33.08 | 3.057 | 15.09 |
| 26 | `COCCN1CC2(CCCN(c3ncnc4[nH]cnc34)C2)CCC1=O` (configuration not stated) | 12.57 | 1.04 | 15.56 |
| 27 | `CCOC(=O)[C@H]1[C@@H](O)C(=O)N(C)C12CCN(C(=O)OC)CC2` | 12.83 | -0.729 | 14.43 |
| 28 | `COc1cccc(SCC(=O)N2CCC(N3CCCC(O)C3)CC2)c1` (configuration not stated) | 17.34 | 4.615 | 19.35 |
| 29 | `[H][C@@]12CCN(C(=O)c3ccccc3)[C@]1([H])C(=O)N(Cc1ccccc1)C(=O)N2` | -66.7 | - | - |
| 30 | `CN1CCN(Cc2noc(-c3cc(-c4ccc(F)cc4)n[nH]3)n2)CC1` | -2.4 | -3.239 | 9.524 |
| 31 | `CC1CN(c2ccc(C#N)cn2)CCN1c1ccc2nncn2n1` (configuration not stated) | 4.798 | 4.846 | 19.18 |
| 32 | `Cc1cnn(CCNCc2csc(COc3ccccc3)n2)c1` | 6.989 | 8.51 | 27.96 |
| 33 | `NCCn1cc(C(=O)NCc2ccccc2-n2cccn2)nn1` | 32.34 | 9.313 | 13.11 |
| 34 | `COc1cc(C(C)=O)ccc1SCC(=O)Nc1cc(C)n[nH]1` | 26.18 | 4.15 | 14.17 |
| 35 | `c1ccc(Cc2nnc(CN3CCn4c(nnc4C4CC4)C3)o2)cc1` | 20.27 | 2.649 | 17.24 |
| 36 | `O=C(c1cnc(NCCC2CCCO2)c(Cl)c1)N1CCOCC1` (configuration not stated) | 18.32 | 2.482 | 8.065 |
| 37 | `O=S(=O)(C1CC1)N1CCn2c(Cn3cccn3)cnc2C1` | 31.2 | -3.987 | 12.82 |
| 38 | `CCc1nccn1C1CCCN(C(=O)c2ccc3c(c2)nnn3C)C1` (configuration not stated) | 4.942 | 0.03368 | 15.65 |
| 39 | `CC(c1nc(C(C)(C)C)no1)N1CCN(Cc2ccc(C#N)cc2)CC1` (configuration not stated) | 9.933 | 8.246 | 8.929 |
| 40 | `COc1ccc(Cc2nnc(SC)o2)cc1OC` | 8.034 | 6.785 | 20.39 |
| 41 | `[H][C@@]12CN(C(=O)c3cccn3C)C[C@]1([H])OCCN2Cc1csc(C)n1` | 20.02 | - | - |
| 42 | `c1cncc(OCc2noc3c2CN(Cc2ccoc2)CC3)c1` | 10.86 | 1.714 | 19.42 |
| 43 | `OC(CN1CCN(Cc2ccc(F)cc2)CC1)C1CC1` (configuration not stated) | - | 2.33 | 30.77 |
| 44 | `c1ccc2c(c1)COC1(CCCC1)N2` | -24.56 | -2.091 | -6.522 |
| 45 | `CC(=O)NCCN1CCC(c2cccs2)CC1` | 14.89 | 4.95 | 28.85 |
| 46 | `Cc1nc(CCNC(=O)Nc2cc(C(F)(F)F)c[nH]c2=O)cs1` | 16.75 | 9.641 | 20.99 |
| 47 | `CC1CCN(CCNC(=O)Nc2ccc(F)cc2Cl)CC1` | 7.812 | 1.379 | -6.849 |
| 48 | `Cn1cc(C#N)cc1C(=O)Nc1ccc(CN2CCOCC2)cn1` | 19.71 | 6.855 | 19.48 |
| 49 | `CC(C)N(C)Cc1cncc2c1CCN(C(=O)c1ccc[nH]1)C2` | - | 2.581 | 15.79 |
| 50 | `CCc1ccc2nc(C)cc(C(=O)NC3CCCCNC3=O)c2c1` (configuration not stated) | 13.38 | 7.022 | 13.73 |
| 51 | `CNS(=O)(=O)CC(=O)NC(C)Cc1ccc(-c2ccccc2)cc1` (configuration not stated) | 32.54 | 0.7271 | 13.56 |
| 52 | `COCCCC1CCCCN1Cc1cn2cc(C)ccc2n1` (configuration not stated) | 33.89 | -0.05547 | 10.84 |
| 53 | `O=C(O)C(F)(F)F.[H][C@@]12CCN(CC3CC3)[C@@]1([H])CCN2C(=O)c1ccc(F)cc1` | -12.84 | - | - |
| 54 | `O=C(O)C(F)(F)F.[H][C@@]12CCN(S(C)(=O)=O)C[C@]1(C(=O)NCCc1ccccn1)CCO2` | -1.224 | - | - |
| 55 | `COc1ccc(Br)cc1CN(C)C(C)c1nc(C)no1` (configuration not stated) | 22.48 | 1.163 | 14 |
| 56 | `COCCN1C[C@@H]2[C@@H](OC)CCN(Cc3ccsc3)[C@@H]2C1` | - | 4.663 | 14.52 |
| 57 | `COCc1ccc(C(=O)N2CCC(c3cc4ncc(C)nc4[nH]3)C2)cc1` (configuration not stated) | 1.622 | 0.7901 | 11.72 |
| 58 | `c1cn2c(n1)CNCC(COCC1CC1)C2` (configuration not stated) | 19.87 | 7.413 | 5.172 |
| 59 | `OC(CN1CCC(c2ccn[nH]2)CC1)c1cccc(F)c1` (configuration not stated) | 15.97 | 9.493 | -48.31 |
| 60 | `O=C(C[C@@H]1COC[C@H]2CN(CC3CC3)C[C@@H]12)N1CCCCO1` | - | -0.867 | 10.53 |
| 61 | `CN(C)c1ncc(C(=O)N2C[C@H]3C[C@H](Oc4ccccc4)C[C@H]3C2)cn1` | - | 1.794 | -5.755 |
| 62 | `O=C(O)C(F)(F)F.O=C(O)C(F)(F)F.O=C(O)C(F)(F)F.[H][C@]12C[C@@H](CN3CCCC3)N(C)[C@@]1([H])CCN(Cc1ccoc1)C2` | 17.31 | - | - |
| 63 | `CCc1nc(C2CCCN(C(=O)c3ccc4[nH]nnc4c3)C2)no1` (configuration not stated) | -21.95 | 3.097 | 8 |
| 64 | `CC(=O)N1CCN(Cc2ccc(C(F)(F)F)cc2F)CC(O)C1` (configuration not stated) | 10.92 | 4.792 | 12.5 |
| 65 | `COc1cccc(-c2noc3c2CN(c2ncnc4c2CCC4)CC3)c1` | 43.15 | 6.548 | 7.895 |
| 66 | `COc1ccc(N2CCN(C[C@@H](C)CO)CC2=O)cc1` | 19.82 | 2.394 | 8.602 |

The last 4 entries again:

Compound	Leishmania in macrophages	PfKRS1	LiHisRS
CCc1nc(C2CCCN(C(=O)c3ccc4[nH]nnc4c3)C2)no1 (configuration not stated)	-21.95	3.097	8
CC(=O)N1CCN(Cc2ccc(C(F)(F)F)cc2F)CC(O)C1 (configuration not stated)	10.92	4.792	12.5
COc1cccc(-c2noc3c2CN(c2ncnc4c2CCC4)CC3)c1	43.15	6.548	7.895
COc1ccc(N2CCN(C[C@@H](C)CO)CC2=O)cc1	19.82	2.394	8.602

Measurements from “University of Dundee, Small-Polar-MMV Screening Library” (2021), ChEMBL document CHEMBL3988442.